Measured values as given in publication PMC7819943, “Rice protein-binding microarrays: a tool to detect cis-acting elements near promoter regions in rice”.
This is one part of the list.

Chains of the proteins cited; added tags and fusions are not shown.
UniProt Q0JBA9, entry or part of it: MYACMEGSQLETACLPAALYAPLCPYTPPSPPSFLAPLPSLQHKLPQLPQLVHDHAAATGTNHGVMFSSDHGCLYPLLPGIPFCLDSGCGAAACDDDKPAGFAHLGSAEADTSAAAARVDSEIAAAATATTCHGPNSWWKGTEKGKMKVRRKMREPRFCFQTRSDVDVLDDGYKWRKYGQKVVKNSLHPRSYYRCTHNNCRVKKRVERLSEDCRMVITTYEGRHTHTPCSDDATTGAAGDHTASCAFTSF

Each sequence was assayed against OsWRKY34 (Oryza sativa, UniProt Q0JBA9 1-250) (assay: protein-binding microarray (RPBM); PBS, 2% BSA, 51.3 ng/ul salmon testes DNA, 50 uM zinc acetate, 200 nM TF, 25 C, 1 h; high values mean tight binding). Conditions: protein: recombinant; tags: N-terminal polyhistidine and DsRed monomer fusion (pET32a); label: CyDye5-dUTP incorporated in the synthesized complementary strand; 3' TTTTT single-stranded linker to array surface; dsDNA, one strand shown.
Procedure, shortened: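 Binding signal here means per-feature fluorescence intensity in arbitrary units. The values were read on an Axon 4000B scanner after a custom Agilent array, double-stranded by primer extension with Cy5-dUTP, was incubated with 200 nM protein at 25 °C for 1 h in PBS with 2% BSA, salmon testes DNA and 50 µM zinc acetate, then washed. The proteins were transcription factors with an N-terminal polyhistidine tag and DsRed, expressed in E. coli BL21-CodonPlus and purified on Ni–NTA.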

Sequence	binding signal
AATCAGATCTTTAAGCACAGCCTTTGATGCCAACTTTTTCCGGAGTCACCTAGTGCAG	8680 fluorescence intensity (a.u.)
CTTCAGTGGGATCAGGGATGTACCGCTGGTTTTTATTTCTCGGAGTCACCTAGTGCAG	9300 fluorescence intensity (a.u.)
GCTCCCTTTTTATGCACTGCCGCACCATCTCTTTTCTCCTCGGAGTCACCTAGTGCAG	9360 fluorescence intensity (a.u.)
GATATACTATCCTCCAATGAGTCATCCTGTTTCACTGCTACGGAGTCACCTAGTGCAG	9960 fluorescence intensity (a.u.)
ACTCCCGAAGGCAATTCCAACCACCGCATTATGCCACACACGGAGTCACCTAGTGCAG	9160 fluorescence intensity (a.u.)
ATCAGCATTTCGCCTTTCGTCGTCGTCGTCATCATCCACTCGGAGTCACCTAGTGCAG	11400 fluorescence intensity (a.u.)
TATTTTTCATGCAGATCTTTTGAGGGGTCAGCCACTCTTTCGGAGTCACCTAGTGCAG	8760 fluorescence intensity (a.u.)
ACCAGTTAATGTACATTTGCAATTATATTTTGTTATTTTTCGGAGTCACCTAGTGCAG	8230 fluorescence intensity (a.u.)
GTCCCATGTCTCACACGCTCAGCATGAGGCGCCTCACACGCGGAGTCACCTAGTGCAG	9180 fluorescence intensity (a.u.)
TGGTAGATCCGCTGGTCTCTCTCTTTCACTGCGCGCCTCTCGGAGTCACCTAGTGCAG	8540 fluorescence intensity (a.u.)
GCCATTGCTACAGCTCTGCTACATCTCTGGGTCGTGCGTCCGGAGTCACCTAGTGCAG	8190 fluorescence intensity (a.u.)
TTTCAAGCAATCCATATTCCGTCCGTCAGCTACTGCTAGTCGGAGTCACCTAGTGCAG	9620 fluorescence intensity (a.u.)
TTGATGCGCCTCCCTATGGTAGCTGCCTCTGTTTTCTTTTCGGAGTCACCTAGTGCAG	8780 fluorescence intensity (a.u.)
TCAAACATTTAAAAAAAAAGTCAACGGCGTCAAATATTTTCGGAGTCACCTAGTGCAG	8470 fluorescence intensity (a.u.)
TTTGTAACCATTAATATTTTTTTCTCAAATACTTAGTTTTCGGAGTCACCTAGTGCAG	8190 fluorescence intensity (a.u.)
ATATTTGGTAGATAATCGATTTTTTTTTCTTCTTCTCCAACGGAGTCACCTAGTGCAG	10600 fluorescence intensity (a.u.)
CACGGTGCCCAGCCAAACACCTCCACCTCCACATCTCTCTCGGAGTCACCTAGTGCAG	8520 fluorescence intensity (a.u.)
ACTTTACCTAATACATCACCCGTTTCAAACTTTAAGCGTTCGGAGTCACCTAGTGCAG	10500 fluorescence intensity (a.u.)
CCAGCGACTTTGACCATACATTTGTTTTCTACTTAATTGACGGAGTCACCTAGTGCAG	9610 fluorescence intensity (a.u.)
ACCAAAATCTCTCATCCTTGCCACCACAGTGACCACTCCGCGGAGTCACCTAGTGCAG	10700 fluorescence intensity (a.u.)
GCCTACCCGCCGGAATCTTGCGTCATCTGGCGGCCGCCGCCGGAGTCACCTAGTGCAG	8180 fluorescence intensity (a.u.)

Sequence	binding signal
GCCCCACTATTCCCACCCGCACGAGACAGACAGGTGGGCCCGGAGTCACCTAGTGCAG	8790 fluorescence intensity (a.u.)
CCCGCGGCGGCGGGGTGGAGGCGACGGCGGTGGTGGTGGGCGGAGTCACCTAGTGCAG	8590 fluorescence intensity (a.u.)
AGAATGCTACGTTAGCGAAACCACCCATATATATTGCCATCGGAGTCACCTAGTGCAG	8160 fluorescence intensity (a.u.)
GATCGCTTCCATTTTTACTCAACCAGCCGCTGCCCGTTGGCGGAGTCACCTAGTGCAG	8640 fluorescence intensity (a.u.)
CTTGCAGCTCGTCGTCGTCGTCGTTGATCTTTGGCTATATCGGAGTCACCTAGTGCAG	10600 fluorescence intensity (a.u.)
CCCGCCCGTGTAAGCATCCACCGCCTCGCCTGCGCGGTTCCGGAGTCACCTAGTGCAG	10900 fluorescence intensity (a.u.)
ATGTGAGGTATTCTGTGGTGTATTGTGCAAGACTATGATGCGGAGTCACCTAGTGCAG	8300 fluorescence intensity (a.u.)
TCCTTTGCATGTTCCATTTCACTTGTACCATGATTTTTTTCGGAGTCACCTAGTGCAG	12600 fluorescence intensity (a.u.)
TTCCTCGCTACTAGCCTACTACCACCTTAAAATGGCCCACCGGAGTCACCTAGTGCAG	8430 fluorescence intensity (a.u.)
ATCGCGCGCTCGTTCTCGCACGCACGCGGCGAGCGCTCGCCGGAGTCACCTAGTGCAG	8410 fluorescence intensity (a.u.)
TCCCACATTTAATTCCCCATACATGTGTCCAAACATTTAACGGAGTCACCTAGTGCAG	8100 fluorescence intensity (a.u.)
AACCCCGACCCGACCCGCAAACACACAATCTGCTTTCTCCCGGAGTCACCTAGTGCAG	8460 fluorescence intensity (a.u.)
TTGCTGTGCTGTATGTATGTGTGTGCATGATTTTGTCGTTCGGAGTCACCTAGTGCAG	10900 fluorescence intensity (a.u.)
CTCTGGTTGTCTTTCCTTATCCGGAACTCTCACCATATCTCGGAGTCACCTAGTGCAG	11400 fluorescence intensity (a.u.)
AAGCTGGTTTGGCTAATTGTGTTGTGTAACTATAAATCTTCGGAGTCACCTAGTGCAG	8280 fluorescence intensity (a.u.)
TCTTTGGATTTGAAACTTGGCGGTGGTGGATTGAGGCGGTCGGAGTCACCTAGTGCAG	8160 fluorescence intensity (a.u.)
GACCCACCCAACCCAGCTGATGATTTGCTCCGGCCGCCTTCGGAGTCACCTAGTGCAG	8680 fluorescence intensity (a.u.)
CGCCTTGTCTGTCCCTACTATATCTACCGTCTCGCCTATTCGGAGTCACCTAGTGCAG	9850 fluorescence intensity (a.u.)
TTCTCCACTTTTTCAACCTGACTTCGCCGCCGCAAGTACTCGGAGTCACCTAGTGCAG	8230 fluorescence intensity (a.u.)
GCGCCGCCGCCGCCGCCACCATCGCCCCGCTGACCGCCTCCGGAGTCACCTAGTGCAG	10800 fluorescence intensity (a.u.)
ACACGCCGACACCCATCTCTTCGTCTTCCTCGCCTAAAACCGGAGTCACCTAGTGCAG	10100 fluorescence intensity (a.u.)

Sequence	binding signal
CGTTGTCCTTCGGATCATCTTGGCATATCTCTCTGCAGCACGGAGTCACCTAGTGCAG	8990 fluorescence intensity (a.u.)
TGGGATAGAGGGAGTATGTTTTTTCTATTTCTCGGTTTTCCGGAGTCACCTAGTGCAG	8120 fluorescence intensity (a.u.)
TTTTCTGTTCATGCGTATCTACATGTTTGTACAGCCAAACCGGAGTCACCTAGTGCAG	8070 fluorescence intensity (a.u.)
ACTTCGTGGTCGGGGAGCGGATCGGGGAAGGGTCGTTCGGCGGAGTCACCTAGTGCAG	8460 fluorescence intensity (a.u.)
ACTCCACCGTACCAACCGCGGCGCGGCCGATCGATCGACGCGGAGTCACCTAGTGCAG	8170 fluorescence intensity (a.u.)
ATGCACCACTGTTCCTGTCCTGGCTTTGCACAACATCCATCGGAGTCACCTAGTGCAG	13300 fluorescence intensity (a.u.)
GATTTCCTTTCCCGCCACACTCTCGCCTCGCCGCAAAACTCGGAGTCACCTAGTGCAG	14500 fluorescence intensity (a.u.)
CTCCTCATCTCGGCAAAACCACCACCGCATTGCCGGTATACGGAGTCACCTAGTGCAG	10400 fluorescence intensity (a.u.)
CCTCTACTCGACTCGACTCGACTCGCTAGTCGCTACCACCCGGAGTCACCTAGTGCAG	9230 fluorescence intensity (a.u.)
GTCCACTCACAAATCGATCTCTCTCCTGCCATCTTCAGATCGGAGTCACCTAGTGCAG	11000 fluorescence intensity (a.u.)
AATCTATGTACATTCGTTATTTTAGAAGAAGCCGTATAATCGGAGTCACCTAGTGCAG	9000 fluorescence intensity (a.u.)
TTACACTACTTCCGTTTTTCATTTTCATTATTTTCGAGTTCGGAGTCACCTAGTGCAG	11900 fluorescence intensity (a.u.)
AACTACGTACAATATACCAGCCATTCGAGCAATGTTCATACGGAGTCACCTAGTGCAG	8560 fluorescence intensity (a.u.)
ACTCTTTTGTTTTTATGTCGTGCAAGTGTACCCTTCGGTACGGAGTCACCTAGTGCAG	9860 fluorescence intensity (a.u.)
ATATCCGTGGTTGTTTTGGTTGTTGCGCCTAAAAATCCTGCGGAGTCACCTAGTGCAG	8750 fluorescence intensity (a.u.)
ATTTCAGCTCTGCTTCACCGCAACAACTCCCGGTAAATTCCGGAGTCACCTAGTGCAG	8350 fluorescence intensity (a.u.)
TTTTTATTTTTCGCGTTTTTAAGATAATGTCTTAACCAATCGGAGTCACCTAGTGCAG	8740 fluorescence intensity (a.u.)
GTCAATCATGGGATATTACTGTACTACCTCCGTCTCAGAACGGAGTCACCTAGTGCAG	8100 fluorescence intensity (a.u.)
ACATCTCCGTACCGCCACTCGCCAAGTCGCCGCCGCTCTACGGAGTCACCTAGTGCAG	11700 fluorescence intensity (a.u.)
TCGGACCACCAGACGCCTCCGCTGTCGCAGCACTGATCTGCGGAGTCACCTAGTGCAG	9030 fluorescence intensity (a.u.)
AGACCGGCGCTCCGTCTCTCGTACCACCGTACCACCCTAACGGAGTCACCTAGTGCAG	8470 fluorescence intensity (a.u.)

Sequence	binding signal
ATTTGCTCTCGTCTGCCTCTCCGACCACGACCAGAGCTCGCGGAGTCACCTAGTGCAG	9090 fluorescence intensity (a.u.)
CACATATCCATCTTTCTTAATTATCTTTCTGTGTACTTGCCGGAGTCACCTAGTGCAG	9340 fluorescence intensity (a.u.)
GTTTCCTAACCATTGGATCCCTCGATCTAACGTCTCACATCGGAGTCACCTAGTGCAG	8750 fluorescence intensity (a.u.)
TATTTTTTGGACTGGTTTCATATGTTTGTGGTACAATTTACGGAGTCACCTAGTGCAG	10100 fluorescence intensity (a.u.)
CGTATTTTAATATATGACGCCCGCCGTTGACTTTTTGTCTCGGAGTCACCTAGTGCAG	27800 fluorescence intensity (a.u.)
TATCTCGCTCTTGTCCTCTTCGCTTCGTTTTGTATATAAACGGAGTCACCTAGTGCAG	11000 fluorescence intensity (a.u.)
TTCTATTCCTCTCTCTCTCTCTCTCTCTCTCTCTCTCTCTCGGAGTCACCTAGTGCAG	9550 fluorescence intensity (a.u.)
TTTTTAATAGATAACGTCGTTGACTTTTTCTCACATGTTTCGGAGTCACCTAGTGCAG	25600 fluorescence intensity (a.u.)
GTTCTGCCGAGATCATCTTGCTGCTTGTGTTCCATTTGGACGGAGTCACCTAGTGCAG	8290 fluorescence intensity (a.u.)
CTCATCTCCCATCTTCCCCACGCCACCAAACCCCGAGAACCGGAGTCACCTAGTGCAG	8620 fluorescence intensity (a.u.)
TCCCCTTCCTCATCTCCGCCTCGCCTCCACCGGCCGTGATCGGAGTCACCTAGTGCAG	8420 fluorescence intensity (a.u.)
TTTGTGTTCATGGCCCTCTCCTCTTTCCTGGCCCATCTGACGGAGTCACCTAGTGCAG	9350 fluorescence intensity (a.u.)
GACGGCGCTAACCACCCACCAGCCCACGTCCCAGTCTCTCCGGAGTCACCTAGTGCAG	9980 fluorescence intensity (a.u.)
CGCGGGGCCCACCCACCACCTCCTCTCCGCGACGTTTCGACGGAGTCACCTAGTGCAG	8270 fluorescence intensity (a.u.)
CTAATAGGCCATGTCTGGATAATGGGTTTGGGATATGATTCGGAGTCACCTAGTGCAG	8210 fluorescence intensity (a.u.)
ATATATATATATATATATATATATATATAGAGCGCGCACTCGGAGTCACCTAGTGCAG	21200 fluorescence intensity (a.u.)
ATCATCATCGTCATCACCGCGCATCCCCATAGTCCTCAACCGGAGTCACCTAGTGCAG	8660 fluorescence intensity (a.u.)
GGCTAGGTTGTGCGCGCCCTTCTCGATGTAGCAATAGCAACGGAGTCACCTAGTGCAG	8520 fluorescence intensity (a.u.)
TTTAGGGCCTGTTCACTTTAATGTCATTTTCAACCTTACCCGGAGTCACCTAGTGCAG	9260 fluorescence intensity (a.u.)
GCTGCACTCTTCTGTTCGGCAACAGCATCGCACCATCTCTCGGAGTCACCTAGTGCAG	9060 fluorescence intensity (a.u.)
TCAGTCTTTTCAGTTCGGTCTTTTTCTGCCCACCCCTATACGGAGTCACCTAGTGCAG	10800 fluorescence intensity (a.u.)
